Results published in the supplement of paper PMC12823440, “Inhibitors supercharge kinase turnover through native proteolytic circuits” (Nature, 2025).
Structures can show the parent of a compound that is named as a salt. The list shows a part of the results. The calls rarely recur for the same compound in another form.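 In K562 cells expressing nanoluciferase-fused kinases, luminescence was recorded at 4 h intervals between 2 and 18 h, normalized as percent of control with DMSO at 100% and a positive control at 0%. A significant (2 sigma) signal drop marks a time point as decreased. The authors' rule for a hit is not shown and takes in more than the number of time points.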

Sequences of proteins named here, by UniProt entry; tags and fusion partners are left off. A change or cut given only in a name is not applied to a line headed by its entry.
UniProt P28482, whole entry: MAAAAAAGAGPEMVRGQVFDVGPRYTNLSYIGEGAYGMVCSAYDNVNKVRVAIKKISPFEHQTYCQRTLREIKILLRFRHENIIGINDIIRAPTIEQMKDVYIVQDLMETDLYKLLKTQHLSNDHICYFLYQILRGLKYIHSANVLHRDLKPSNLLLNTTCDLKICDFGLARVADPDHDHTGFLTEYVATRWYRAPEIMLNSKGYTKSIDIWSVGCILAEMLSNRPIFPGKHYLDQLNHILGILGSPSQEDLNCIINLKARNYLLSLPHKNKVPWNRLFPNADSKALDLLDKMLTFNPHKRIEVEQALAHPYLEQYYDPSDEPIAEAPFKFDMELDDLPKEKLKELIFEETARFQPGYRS
UniProt P31152, whole entry: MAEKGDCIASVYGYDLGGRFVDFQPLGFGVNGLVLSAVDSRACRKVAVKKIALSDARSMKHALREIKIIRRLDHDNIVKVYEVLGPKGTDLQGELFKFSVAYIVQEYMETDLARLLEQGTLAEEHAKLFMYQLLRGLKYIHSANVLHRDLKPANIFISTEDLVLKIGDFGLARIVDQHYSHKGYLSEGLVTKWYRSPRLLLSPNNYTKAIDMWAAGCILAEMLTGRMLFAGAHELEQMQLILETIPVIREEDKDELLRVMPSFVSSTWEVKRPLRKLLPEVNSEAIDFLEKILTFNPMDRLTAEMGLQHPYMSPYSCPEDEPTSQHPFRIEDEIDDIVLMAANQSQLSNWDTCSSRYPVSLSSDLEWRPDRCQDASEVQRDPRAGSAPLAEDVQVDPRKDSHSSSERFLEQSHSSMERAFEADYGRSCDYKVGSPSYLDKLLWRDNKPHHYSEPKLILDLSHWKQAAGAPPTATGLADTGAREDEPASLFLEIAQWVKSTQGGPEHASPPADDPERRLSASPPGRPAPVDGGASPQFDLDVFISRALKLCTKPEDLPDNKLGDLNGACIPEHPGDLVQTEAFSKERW
UniProt P49137, whole entry, looked up: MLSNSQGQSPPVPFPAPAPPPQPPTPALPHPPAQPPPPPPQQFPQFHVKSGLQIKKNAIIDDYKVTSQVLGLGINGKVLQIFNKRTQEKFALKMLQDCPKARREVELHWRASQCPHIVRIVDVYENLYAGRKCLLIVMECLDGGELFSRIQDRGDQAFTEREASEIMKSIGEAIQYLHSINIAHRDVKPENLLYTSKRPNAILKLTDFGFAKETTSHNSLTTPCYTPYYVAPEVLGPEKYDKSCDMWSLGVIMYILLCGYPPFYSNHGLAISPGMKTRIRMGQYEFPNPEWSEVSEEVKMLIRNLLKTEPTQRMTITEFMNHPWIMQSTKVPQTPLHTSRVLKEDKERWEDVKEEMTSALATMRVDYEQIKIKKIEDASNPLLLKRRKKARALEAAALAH
UniProt Q9BUB5: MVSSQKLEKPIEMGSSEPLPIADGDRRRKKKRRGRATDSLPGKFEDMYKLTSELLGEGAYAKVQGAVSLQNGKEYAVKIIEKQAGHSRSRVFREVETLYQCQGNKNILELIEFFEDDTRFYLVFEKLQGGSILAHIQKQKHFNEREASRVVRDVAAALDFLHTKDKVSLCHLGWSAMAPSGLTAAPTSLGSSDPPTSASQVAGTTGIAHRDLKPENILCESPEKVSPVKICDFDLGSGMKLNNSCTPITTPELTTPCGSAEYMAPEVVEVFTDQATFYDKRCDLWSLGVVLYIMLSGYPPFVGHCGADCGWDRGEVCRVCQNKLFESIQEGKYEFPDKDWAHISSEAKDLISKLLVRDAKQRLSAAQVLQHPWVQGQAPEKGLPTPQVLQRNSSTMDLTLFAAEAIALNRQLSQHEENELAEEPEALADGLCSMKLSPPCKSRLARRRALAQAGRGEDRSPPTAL
UniProt Q16620, whole entry, looked up: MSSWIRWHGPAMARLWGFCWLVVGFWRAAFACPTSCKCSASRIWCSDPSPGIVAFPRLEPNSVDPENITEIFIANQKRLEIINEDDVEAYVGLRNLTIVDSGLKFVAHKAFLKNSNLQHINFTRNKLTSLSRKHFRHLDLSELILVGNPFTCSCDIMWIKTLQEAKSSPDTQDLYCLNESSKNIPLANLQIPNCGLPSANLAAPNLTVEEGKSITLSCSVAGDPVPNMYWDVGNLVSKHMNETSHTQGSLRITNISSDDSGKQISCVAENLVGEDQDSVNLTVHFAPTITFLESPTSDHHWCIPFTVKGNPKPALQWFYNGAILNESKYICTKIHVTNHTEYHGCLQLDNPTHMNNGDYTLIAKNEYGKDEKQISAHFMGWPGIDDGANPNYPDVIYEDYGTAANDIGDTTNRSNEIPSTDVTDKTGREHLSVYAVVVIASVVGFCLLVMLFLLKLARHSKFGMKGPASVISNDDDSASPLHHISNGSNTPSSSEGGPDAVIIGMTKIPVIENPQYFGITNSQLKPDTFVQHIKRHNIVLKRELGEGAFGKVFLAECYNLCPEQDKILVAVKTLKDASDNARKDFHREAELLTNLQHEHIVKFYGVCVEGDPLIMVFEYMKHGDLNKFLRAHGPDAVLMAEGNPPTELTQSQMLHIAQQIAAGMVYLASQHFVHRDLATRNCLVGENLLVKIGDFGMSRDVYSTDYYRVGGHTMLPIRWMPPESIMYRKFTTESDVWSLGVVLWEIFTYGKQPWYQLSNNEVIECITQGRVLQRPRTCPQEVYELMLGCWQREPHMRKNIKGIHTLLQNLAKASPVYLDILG
UniProt Q16288, whole entry, looked up: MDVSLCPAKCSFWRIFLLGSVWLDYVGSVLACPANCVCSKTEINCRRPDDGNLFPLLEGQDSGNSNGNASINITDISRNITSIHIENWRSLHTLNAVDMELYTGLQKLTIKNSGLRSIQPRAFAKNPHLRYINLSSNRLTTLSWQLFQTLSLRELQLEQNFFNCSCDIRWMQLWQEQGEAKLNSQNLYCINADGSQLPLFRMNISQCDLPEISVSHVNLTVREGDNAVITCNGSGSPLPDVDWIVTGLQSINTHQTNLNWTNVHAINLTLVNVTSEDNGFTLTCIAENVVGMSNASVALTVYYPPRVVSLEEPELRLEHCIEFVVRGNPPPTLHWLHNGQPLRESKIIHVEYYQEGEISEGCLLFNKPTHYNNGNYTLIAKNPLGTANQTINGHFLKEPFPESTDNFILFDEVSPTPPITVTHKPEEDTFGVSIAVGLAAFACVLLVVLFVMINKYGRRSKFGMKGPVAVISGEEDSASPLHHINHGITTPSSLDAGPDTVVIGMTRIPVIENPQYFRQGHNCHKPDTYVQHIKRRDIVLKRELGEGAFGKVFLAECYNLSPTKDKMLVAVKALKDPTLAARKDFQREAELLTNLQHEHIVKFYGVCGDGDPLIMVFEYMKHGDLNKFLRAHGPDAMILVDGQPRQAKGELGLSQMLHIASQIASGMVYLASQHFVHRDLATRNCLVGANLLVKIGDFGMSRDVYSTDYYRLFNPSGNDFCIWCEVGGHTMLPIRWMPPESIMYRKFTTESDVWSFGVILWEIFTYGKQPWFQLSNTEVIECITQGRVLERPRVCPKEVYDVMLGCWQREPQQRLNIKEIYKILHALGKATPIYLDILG
UniProt O96013: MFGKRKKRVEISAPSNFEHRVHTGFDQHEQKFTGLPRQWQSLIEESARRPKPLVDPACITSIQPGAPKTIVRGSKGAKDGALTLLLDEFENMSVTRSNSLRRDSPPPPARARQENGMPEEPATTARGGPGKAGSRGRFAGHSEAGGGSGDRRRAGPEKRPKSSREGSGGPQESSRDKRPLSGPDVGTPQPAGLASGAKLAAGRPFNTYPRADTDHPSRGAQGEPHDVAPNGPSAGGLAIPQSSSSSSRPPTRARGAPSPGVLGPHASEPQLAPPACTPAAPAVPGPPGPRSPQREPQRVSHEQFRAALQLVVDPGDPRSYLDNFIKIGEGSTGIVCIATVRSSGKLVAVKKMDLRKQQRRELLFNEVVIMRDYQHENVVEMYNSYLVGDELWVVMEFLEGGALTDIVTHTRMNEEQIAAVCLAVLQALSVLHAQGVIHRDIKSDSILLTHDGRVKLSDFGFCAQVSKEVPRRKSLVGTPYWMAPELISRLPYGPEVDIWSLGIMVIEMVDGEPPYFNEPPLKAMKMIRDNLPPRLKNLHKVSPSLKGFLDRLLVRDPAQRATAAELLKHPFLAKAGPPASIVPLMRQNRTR
UniProt Q96KB5: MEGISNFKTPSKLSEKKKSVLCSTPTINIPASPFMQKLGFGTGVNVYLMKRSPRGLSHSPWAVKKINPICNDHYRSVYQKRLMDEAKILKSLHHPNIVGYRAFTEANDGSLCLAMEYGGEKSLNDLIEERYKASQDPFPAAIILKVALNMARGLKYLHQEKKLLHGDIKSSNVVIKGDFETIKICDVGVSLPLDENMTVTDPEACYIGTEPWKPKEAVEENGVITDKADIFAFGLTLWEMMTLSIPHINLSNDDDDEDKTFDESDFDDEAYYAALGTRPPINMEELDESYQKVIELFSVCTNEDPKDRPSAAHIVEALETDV
UniProt P09619, whole entry: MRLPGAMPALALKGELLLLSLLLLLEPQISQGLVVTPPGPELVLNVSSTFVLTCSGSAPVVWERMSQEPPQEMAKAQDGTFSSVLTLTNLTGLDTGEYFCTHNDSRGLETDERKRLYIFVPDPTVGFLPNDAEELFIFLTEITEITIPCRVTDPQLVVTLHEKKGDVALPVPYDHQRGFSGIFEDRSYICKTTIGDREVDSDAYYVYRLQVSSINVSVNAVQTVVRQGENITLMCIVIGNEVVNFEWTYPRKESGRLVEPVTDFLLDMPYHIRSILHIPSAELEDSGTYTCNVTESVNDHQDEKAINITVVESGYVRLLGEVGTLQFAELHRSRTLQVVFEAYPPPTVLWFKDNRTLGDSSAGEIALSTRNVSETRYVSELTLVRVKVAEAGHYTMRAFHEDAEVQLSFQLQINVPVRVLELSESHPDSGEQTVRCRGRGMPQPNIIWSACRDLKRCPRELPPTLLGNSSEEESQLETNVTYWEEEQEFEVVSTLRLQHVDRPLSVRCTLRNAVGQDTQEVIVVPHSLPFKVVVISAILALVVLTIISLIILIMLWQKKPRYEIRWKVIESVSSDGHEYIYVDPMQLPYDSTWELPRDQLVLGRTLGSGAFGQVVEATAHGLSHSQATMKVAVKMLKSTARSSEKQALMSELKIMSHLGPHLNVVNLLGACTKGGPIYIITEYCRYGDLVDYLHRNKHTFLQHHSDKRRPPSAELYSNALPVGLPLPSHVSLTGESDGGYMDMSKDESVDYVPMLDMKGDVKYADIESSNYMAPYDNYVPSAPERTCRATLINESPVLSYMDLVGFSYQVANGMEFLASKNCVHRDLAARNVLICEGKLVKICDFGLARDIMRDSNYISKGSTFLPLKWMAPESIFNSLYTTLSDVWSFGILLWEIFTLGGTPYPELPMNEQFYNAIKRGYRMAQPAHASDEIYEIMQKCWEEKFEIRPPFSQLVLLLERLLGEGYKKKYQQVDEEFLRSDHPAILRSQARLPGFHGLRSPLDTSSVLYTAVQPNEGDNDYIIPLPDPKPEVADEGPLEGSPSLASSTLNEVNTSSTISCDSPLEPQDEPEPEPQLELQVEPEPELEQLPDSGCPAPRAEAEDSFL
UniProt Q15118, whole entry, looked up: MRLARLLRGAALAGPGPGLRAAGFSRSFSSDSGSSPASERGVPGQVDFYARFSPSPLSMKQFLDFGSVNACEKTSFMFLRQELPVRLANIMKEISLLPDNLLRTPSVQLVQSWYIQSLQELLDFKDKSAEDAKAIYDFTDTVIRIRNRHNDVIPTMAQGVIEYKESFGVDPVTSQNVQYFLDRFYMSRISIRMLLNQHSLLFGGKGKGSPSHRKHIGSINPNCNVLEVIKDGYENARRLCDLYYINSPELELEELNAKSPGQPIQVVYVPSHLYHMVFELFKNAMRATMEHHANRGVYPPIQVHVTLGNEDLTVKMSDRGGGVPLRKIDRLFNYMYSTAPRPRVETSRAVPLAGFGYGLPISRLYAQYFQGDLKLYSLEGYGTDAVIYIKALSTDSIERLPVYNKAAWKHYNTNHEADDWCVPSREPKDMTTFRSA

How the values were obtained:
Experiment in all cases: kinase-Nluc reporter destabilization hit call (1 = scored as downregulated) (binary); higher = compound decreases kinase abundance
Conditions in all cases: K562; 2-18 h
[1] = molecular target: MAPK1 (UniProt P28482)
[2] = molecular target: MAPK4 (UniProt P31152)
[3] = molecular target: MAPKAPK2 (UniProt P49137)
[4] = molecular target: MKNK1 (UniProt Q9BUB5)
[5] = molecular target: NTRK2 (UniProt Q16620)
[6] = molecular target: NTRK3 (UniProt Q16288)
[7] = molecular target: PAK4 (UniProt O96013)
[8] = molecular target: PBK (UniProt Q96KB5)
[9] = molecular target: PDGFRB (UniProt P09619)
[10] = molecular target: PDK1 (UniProt Q15118)

Measured: kinase-Nluc reporter destabilization hit call

CS(=O)(=O)c1ccc(-c2cnc(N)c(-c3ccc(C(F)(F)F)nc3)c2)cc1 (10 µM)
inactive: [1] 0 | [2] 0 | [3] 0 | [4] 0 | [5] 0 | [6] 0 | [7] 0 | [8] 0 | [9] 0 | [10] 0

O=c1[nH]c(C2CCCN2)nc2c1oc1ccc(Cl)cc12 (stereo not given) [XL413 (hydrochloride)] (10 µM)
inactive: [1] 0 | [2] 0 | [3] 0 | [4] 0 | [5] 0 | [6] 0 | [7] 0 | [8] 0 | [9] 0 | [10] 0

CCCCCCCC/C=C\CCCCCCCCCCCC(=O)O [Erucic acid] (10 µM)
inactive: [1] 0 | [2] 0 | [3] 0 | [4] 0 | [5] 0 | [6] 0 | [7] 0 | [8] 0 | [9] 0 | [10] 0

O=C1/C(=C\c2ccc(Cl)cc2)C=C(c2ccccc2)N1c1ccc(O)cc1 (2.5 µM)
inactive: [1] 0 | [2] 0 | [3] 0 | [4] 0 | [5] 0 | [6] 0 | [7] 0 | [8] 0 | [9] 0 | [10] 0

Oc1cc(O)c2c(c1)OC1(c3ccc(O)c(O)c3)Oc3cc(O)c4c(c3C2C1O)OC(c1ccc(O)c(O)c1)C(O)C4 (stereo not given) [Procyanidin A1] (10 µM)
inactive: [1] 0 | [2] 0 | [3] 0 | [4] 0 | [5] 0 | [6] 0 | [7] 0 | [8] 0 | [9] 0 | [10] 0

CC(C)C[C@@H](C(=O)Nc1ccn(C[C@@H](O)CO)n1)N1CC(Oc2ccccc2Cl)=CC1=O [Dorzagliatin] (10 µM)
inactive: [1] 0 | [2] 0 | [3] 0 | [4] 0 | [5] 0 | [6] 0 | [7] 0 | [8] 0 | [9] 0 | [10] 0

COc1c(Nc2cc(C)[nH]n2)nc(Sc2ccc(S(=O)(=O)Cc3cccc([N+](=O)[O-])c3F)cc2F)nc1N1CCCCC1 [Centrinone-B] (2.5 µM)
inactive: [1] 0 | [2] 0 | [3] 0 | [4] 0 | [5] 0 | [6] 0 | [7] 0 | [8] 0 | [9] 0 | [10] 0

FC(F)(F)c1ccc(/C=C/c2nc(COc3ccc(CCCCn4ccnn4)cc3)co2)cc1 [Mubritinib] (10 µM)
inactive: [1] 0 | [2] 0 | [3] 0 | [4] 0 | [5] 0 | [6] 0 | [7] 0 | [8] 0 | [9] 0 | [10] 0

Nc1nc(N)c2nc(-c3cccc(O)c3)cnc2n1 (10 µM)
inactive: [1] 0 | [2] 0 | [3] 0 | [4] 0 | [5] 0 | [6] 0 | [7] 0 | [8] 0 | [9] 0 | [10] 0

c1ccc(-c2nc3c(c(-n4ccc5cnccc54)n2)CCC3)nc1 (10 µM)
inactive: [1] 0 | [2] 0 | [3] 0 | [4] 0 | [5] 0 | [6] 0 | [7] 0 | [8] 0 | [9] 0 | [10] 0

CCCCCCCCCCCCCCCCOP(=O)([O-])OCC[N+](C)(C)C [Miltefosine] (10 µM)
inactive: [1] 0 | [2] 0 | [3] 0 | [4] 0 | [5] 0 | [6] 0 | [7] 0 | [8] 0 | [9] 0 | [10] 0

Cc1ccn2c(C(=O)C(=O)c3ccccc3)c(-c3ccccc3)nc2c1 (10 µM)
inactive: [1] 0 | [2] 0 | [3] 0 | [4] 0 | [5] 0 | [6] 0 | [7] 0 | [8] 0 | [9] 0 | [10] 0

Cc1cc2sc(NC(=O)Cc3ccccc3)nc2cc1Cl (10 µM)
inactive: [1] 0 | [2] 0 | [3] 0 | [4] 0 | [5] 0 | [6] 0 | [7] 0 | [8] 0 | [9] 0 | [10] 0

O=C(Nc1nc2ccccc2[nH]1)c1cccc([N+](=O)[O-])c1 [IRAK-4 protein kinase inhibitor 2] (10 µM)
inactive: [1] 0 | [2] 0 | [3] 0 | [4] 0 | [5] 0 | [6] 0 | [7] 0 | [8] 0 | [9] 0 | [10] 0

COc1cc(/C=C/C(=O)N2CCC=CC2=O)cc(OC)c1OC [Piperlongumine] (2.5 µM)
inactive: [1] 0 | [2] 0 | [3] 0 | [4] 0 | [5] 0 | [6] 0 | [7] 0 | [8] 0 | [9] 0 | [10] 0

COc1cc2ncnc(Nc3ccccc3)c2cc1OC (10 µM)
inactive: [1] 0 | [2] 0 | [3] 0 | [4] 0 | [5] 0 | [6] 0 | [7] 0 | [8] 0 | [9] 0 | [10] 0

NC1=NCCN1CC(=O)O [Cyclocreatine] (10 µM)
inactive: [1] 0 | [2] 0 | [3] 0 | [4] 0 | [5] 0 | [6] 0 | [7] 0 | [8] 0 | [9] 0 | [10] 0

CCn1c(=O)c(-c2cc[nH]n2)cc2c(C)nc(N)nc21 [Voxtalisib] (10 µM)
inactive: [1] 0 | [2] 0 | [3] 0 | [4] 0 | [5] 0 | [6] 0 | [7] 0 | [8] 0 | [9] 0 | [10] 0

CNc1nc(Nc2ccc(C(=O)N3CCOCC3)cc2OC)ncc1Cl (2.5 µM)
inactive: [1] 0 | [2] 0 | [3] 0 | [4] 0 | [5] 0 | [6] 0 | [7] 0 | [8] 0 | [9] 0 | [10] 0

Random excerpt: 2 compounds from above.
NC1=NCCN1CC(=O)O [Cyclocreatine] (10 µM)
inactive: [1] 0 | [2] 0 | [3] 0 | [4] 0 | [5] 0 | [6] 0 | [7] 0 | [8] 0 | [9] 0 | [10] 0

CS(=O)(=O)c1ccc(-c2cnc(N)c(-c3ccc(C(F)(F)F)nc3)c2)cc1 (10 µM)
inactive: [1] 0 | [2] 0 | [3] 0 | [4] 0 | [5] 0 | [6] 0 | [7] 0 | [8] 0 | [9] 0 | [10] 0

Next part:

Cc1ccc(NC(=O)c2ccnc(C(F)(F)F)c2)cc1-c1cc(OCCO)nc(N2CCOCC2)c1 (10 µM)
inactive: [1] 0 | [2] 0 | [3] 0 | [4] 0 | [5] 0 | [6] 0 | [7] 0 | [8] 0 | [9] 0 | [10] 0

NC(=O)N1CCC(CC(=O)N2CCC([C@H]3c4ncc(Br)cc4CCc4cc(Cl)cc(Br)c43)CC2)CC1 [Lonafarnib] (2.5 µM)
inactive: [1] 0 | [2] 0 | [3] 0 | [4] 0 | [5] 0 | [6] 0 | [7] 0 | [8] 0 | [9] 0 | [10] 0

C=CC(=O)N1C(=O)CC(c2ccc(F)cc2)Sc2ccccc21 (stereo not drawn) [GSK-3β inhibitor 3] (10 µM)
inactive: [1] 0 | [2] 0 | [3] 0 | [4] 0 | [5] 0 | [6] 0 | [7] 0 | [8] 0 | [9] 0 | [10] 0

N#Cc1ccnc(Nc2cc(C3CCN(C4COC4)CC3)cc(N3CCC(F)(F)C3)n2)c1 (2.5 µM)
inactive: [1] 0 | [2] 0 | [3] 0 | [4] 0 | [5] 0 | [6] 0 | [7] 0 | [8] 0 | [9] 0 | [10] 0

CN(C)c1nc2c(Br)c(Br)c(Br)c(Br)c2[nH]1 (10 µM)
inactive: [1] 0 | [2] 0 | [3] 0 | [4] 0 | [5] 0 | [6] 0 | [7] 0 | [8] 0 | [9] 0 | [10] 0

Cc1c(-c2ccc(C(N)=O)c3[nH]c4cc(C(C)(C)O)ccc4c23)cccc1-n1cnc2ccccc2c1=O (2.5 µM)
inactive: [1] 0 | [2] 0 | [3] 0 | [4] 0 | [5] 0 | [6] 0 | [7] 0 | [8] 0 | [9] 0 | [10] 0

COc1cc(N2CCOCC2)ccc1NC(=O)c1csc(-c2cccnc2)n1 [IRAK inhibitor 6] (10 µM)
inactive: [1] 0 | [2] 0 | [3] 0 | [4] 0 | [5] 0 | [6] 0 | [7] 0 | [8] 0 | [9] 0 | [10] 0

c1ccc(-c2nc(=NCCN3CCOCC3)sn2-c2ccccc2)cc1 [VP3.15 (dihydrobromide)] (10 µM)
inactive: [1] 0 | [2] 0 | [3] 0 | [4] 0 | [5] 0 | [6] 0 | [7] 0 | [8] 0 | [9] 0 | [10] 0

C[C@H](Nc1ncnc2nc[nH]c12)c1cc2cccc(Cl)c2c(=O)n1-c1ccccc1 [Duvelisib] (10 µM)
inactive: [1] 0 | [2] 0 | [3] 0 | [4] 0 | [5] 0 | [6] 0 | [7] 0 | [8] 0 | [9] 0 | [10] 0

CC(=O)N1CCC(c2cc(-c3ccc(NC(=O)c4cccn(-c5ccc(F)cc5)c4=O)cc3F)c3c(N)ncnn23)CC1 (0.5 µM)
inactive: [1] 0 | [2] 0 | [3] 0 | [4] 0 | [5] 0 | [6] 0 | [7] 0 | [8] 0 | [9] 0 | [10] 0

COc1ccc2cc3[n+](cc2c1OC)CCc1cc(O)c(O)cc1-3 [Demethyleneberberine] (10 µM)
inactive: [1] 0 | [2] 0 | [3] 0 | [4] 0 | [5] 0 | [6] 0 | [7] 0 | [8] 0 | [9] 0 | [10] 0
